Usually MIC stands for the lowest concentration that inhibits growth of the organism. The low end stands for a more susceptible organism, the high end for a less susceptible organism.

SMILES strings stand for the structures. In brackets after ≈: the same amount, converted by molar mass.

The test system of experiment [1] is Staphylococcus aureus. Description: Antimicrobial activity against methicillin-resistant Staphylococcus aureus A6226 by agar dilution method. It is filed as functional. (Agar dilution tests growth on a series of plates holding different concentrations.)
In experiment [2] the test system is Staphylococcus aureus. Nature of the experiment: Antimicrobial activity against methicillin-resistant Staphylococcus aureus A8094 by agar dilution method. Type of experiment: functional.

Regarding `CN[C@H](CC(C)C)C(=O)N[C@H]1C(=O)N[C@@H](CC(N)=O)C(=O)N[C@H]2C(=O)N[C@H]3C(=O)N[C@H](C(=O)N[C@H](C(=O)O)c4cc(O)cc(O)c4-c4cc3ccc4O)[C@H](O)c3ccc(c(Cl)c3)Oc3cc2cc(c3O[C@@H]2O[C@H](CO)[C@@H](O)[C@H](O)[C@H]2O[C@H]2C[C@](C)(N)[C@H](O)[C@H](C)O2)Oc2ccc(cc2Cl)[C@H]1O` [VANCOMYCIN], the MIC in experiment [1] and in experiment [2] was 8 µg/mL (≈ 5.52 µM) throughout.

The values are drawn from ChEMBL document CHEMBL1143853, “Daptomycin nonsusceptibility in Staphylococcus aureus with reduced vancomycin susceptibility is independent of alterations in MprF” (2007).
